Data reported in the supplement of paper PMC4635364.
Structures can show the parent of a compound that is named as a salt. Some of the results follow. This data set is noisy: repeats of one test often differ as much as different tests do.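 Human fetal ventral-midbrain neural progenitor line ReNCell VM, differentiated without mitogens. Images stained for doublecortin (early neurons) or tyrosine hydroxylase (dopaminergic neurons) were scored by blinded raters against untreated wells (0 = no change). Repeats and both raters were averaged, and compounds averaging 2 or higher were picked as hits for retesting.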

Key:
ReNCell VM [1] = assay: neuronal differentiation score (DCX+ cell fraction vs untreated, manual image score) (score (-3 to 3)); higher = more neuronal differentiation; conditions: 2 uM, 2 weeks
ReNCell VM [2] = assay: dopaminergic neuron differentiation score (TH+ cell fraction vs untreated, manual image score) (score (0 to 3)); higher = more TH+ dopaminergic neuron differentiation; conditions: 2 uM, 4 weeks, BDNF 10 ng/ml + GDNF 10 ng/ml

In the case of `CN[C@@H]1[C@@H](O)[C@@H](O[C@@H]2[C@@H](O)[C@H](O[C@H]3O[C@H](CN)CC[C@H]3N)[C@@H](N)C[C@H]2N)OC[C@]1(C)O.CN[C@@H]1[C@@H](O)[C@@H](O[C@@H]2[C@@H](O)[C@H](O[C@H]3O[C@H]([C@@H](C)N)CC[C@H]3N)[C@@H](N)C[C@H]2N)OC[C@]1(C)O.CN[C@@H]1[C@@H](O)[C@@H](O[C@@H]2[C@@H](O)[C@H](O[C@H]3O[C@H]([C@@H](C)NC)CC[C@H]3N)[C@@H](N)C[C@H]2N)OC[C@]1(C)O` [Gentamicine sulfate], the neuronal differentiation score (ReNCell VM [1]; library: Prestwick) is reported as inactive: 0 and the “dopaminergic neuron differentiation score” value (ReNCell VM [2]; library: Prestwick) is reported as inactive: 0.
In the case of `CC(=O)Oc1ccc(/C=C/c2cc(OC(C)=O)cc(OC(C)=O)c2)cc1`, the neuronal differentiation score (ReNCell VM [1]; library: Spectrum) is reported as inactive: 0 and the “dopaminergic neuron differentiation score” value (ReNCell VM [2]; library: Spectrum) is reported as inactive: 0.
With `COc1ccc(OC)c(C(O)C(C)N)c1` (stereo not given) the neuronal differentiation score (ReNCell VM [1]; library: Spectrum) was inactive: 0 and the “dopaminergic neuron differentiation score” value (ReNCell VM [2]; library: Spectrum) was inactive: 0.
For `CC(=O)[C@H]1CC[C@H]2[C@@H]3CC[C@@H]4C[C@H](O)CC[C@]4(C)[C@H]3CC[C@]12C`, the neuronal differentiation score (ReNCell VM [1]; library: Spectrum) was inactive: 0 and the “dopaminergic neuron differentiation score” value (ReNCell VM [2]; library: Spectrum) was inactive: 0.
With `O=c1cccc2n1C[C@@H]1CNC[C@H]2C1` [(-)-Cytisine] the neuronal differentiation score (ReNCell VM [1]; library: Tocriscreen) was inactive: 0 and the “dopaminergic neuron differentiation score” value (ReNCell VM [2]; library: Tocriscreen) was inactive: 0.
For `CC1=NCCc2c1[nH]c1cc(O)ccc21`, the neuronal differentiation score (ReNCell VM [1]; library: Spectrum) was inactive: 0 and the “dopaminergic neuron differentiation score” value (ReNCell VM [2]; library: Spectrum) was inactive: 0.
With `COc1cc2c(cc1OC)[C@@]13CCN4CC5=CCO[C@H]6CC(=O)N2[C@H]1[C@H]6[C@H]5C[C@H]43` the neuronal differentiation score (ReNCell VM [1]; library: Spectrum) was inactive: 0 and the “dopaminergic neuron differentiation score” value (ReNCell VM [2]; library: Spectrum) was inactive: 0.
In the case of `NCC(CC(=O)O)c1ccc(Cl)cc1` (racemic) [Baclofen (R,S)], the neuronal differentiation score (ReNCell VM [1]; library: Prestwick) is reported as inactive: 0 and the “dopaminergic neuron differentiation score” value (ReNCell VM [2]; library: Prestwick) is reported as inactive: 0.
With `CN1C2CCC1CC(OC(c1ccccc1)c1ccc(Cl)cc1)C2` (stereo not given) the neuronal differentiation score (ReNCell VM [1]; library: Tocriscreen) was inactive: 0 and the “dopaminergic neuron differentiation score” value (ReNCell VM [2]; library: Tocriscreen) was inactive: 0.
`CC(C)(N)Cc1ccccc1` [Phentermine hydrochloride] was tested, and the neuronal differentiation score (ReNCell VM [1]; library: Prestwick) was inactive: 0 and the “dopaminergic neuron differentiation score” value (ReNCell VM [2]; library: Prestwick) was inactive: 0.
`CC(CC(C(N)=O)(c1ccccc1)c1ccccc1)N(C)C` (stereo not given) was tested, and the neuronal differentiation score (ReNCell VM [1]; library: Spectrum) was inactive: 1 and the “dopaminergic neuron differentiation score” value (ReNCell VM [2]; library: Spectrum) was inactive: 0.
In the case of `CN[C@@H]1[C@@H](O)[C@@H](O[C@@H]2[C@@H](O)[C@H](O[C@H]3O[C@H]([C@@H](C)O)[C@@H](O)[C@H](O)[C@H]3N)[C@@H](N)C[C@H]2N)OC[C@]1(C)O`, the neuronal differentiation score (ReNCell VM [1]; library: Spectrum) is reported as inactive: 0 and the “dopaminergic neuron differentiation score” value (ReNCell VM [2]; library: Spectrum) is reported as inactive: 0.
For `COc1cc2c3cc1Oc1c(OC)c(OC)cc4c1[C@@H](Cc1cccc(c1)Oc1ccc(c(O)c1)C[C@@H]3N(C)CC2)N(C)CC4`, the neuronal differentiation score (ReNCell VM [1]; library: Spectrum) was inactive: 0 and the “dopaminergic neuron differentiation score” value (ReNCell VM [2]; library: Spectrum) was inactive: 0.
`O=C1C(Cl)=C(Cl)C(=O)C(Cl)=C1Cl` was tested, and the neuronal differentiation score (ReNCell VM [1]; library: Spectrum) was inactive: 0 and the “dopaminergic neuron differentiation score” value (ReNCell VM [2]; library: Spectrum) was inactive: 0.
`N=C1NC(=O)N2CC12` (stereo not given) was tested, and the neuronal differentiation score (ReNCell VM [1]; library: Spectrum) was inactive: 0 and the “dopaminergic neuron differentiation score” value (ReNCell VM [2]; library: Spectrum) was inactive: 0.
With `CNc1ccc(C(=O)CC(O)CCC(C)C2OC(=O)CC(O)CC(=O)CC(O)CC(O)CC(O)CC(O)CC3(O)CC(O)C(C(=O)OC)C(CC(O[C@@H]4O[C@H](C)[C@@H](O)[C@H](N)[C@@H]4O)/C=C/C=C/C=C/C=C/C=C/C=C/C=C/C2C)O3)cc1.COC(=O)C1C(O)CC2(O)CC(O)CC(O)CC(O)CC(O)CC(=O)CC(O)CC(=O)OC(C(C)CCC(O)CC(=O)c3ccc(N)cc3)C(C)/C=C/C=C/C=C/C=C/C=C/C=C/C=C/C(O[C@@H]3O[C@H](C)[C@@H](O)[C@H](N)[C@@H]3O)CC1O2` (stereo not given in full) the neuronal differentiation score (ReNCell VM [1]; library: Spectrum) was inactive: 0 and the “dopaminergic neuron differentiation score” value (ReNCell VM [2]; library: Spectrum) was inactive: 0.
With `CCCCC/C=C\C/C=C\C/C=C\C/C=C\CCCC(=O)Nc1ccc(O)cc1` the neuronal differentiation score (ReNCell VM [1]; library: Tocriscreen) was inactive: 0 and the “dopaminergic neuron differentiation score” value (ReNCell VM [2]; library: Tocriscreen) was inactive: 0.
With `COc1cc(C(=O)OC2CC3CCC(C2)N3C)ccc1O` (stereo not given) [Fillalbin] the neuronal differentiation score (ReNCell VM [1]; library: Phytochemical) was inactive: 0 and the “dopaminergic neuron differentiation score” value (ReNCell VM [2]; library: Phytochemical) was inactive: 0.
With `O=C1c2ccccc2C(=O)c2ccccc21` the neuronal differentiation score (ReNCell VM [1]; library: Spectrum) was inactive: 0 and the “dopaminergic neuron differentiation score” value (ReNCell VM [2]; library: Spectrum) was inactive: 0.
For `O=C(O)CCCc1ccc(N(CCCl)CCCl)cc1`, the neuronal differentiation score (ReNCell VM [1]; library: Spectrum) was inactive: 0 and the “dopaminergic neuron differentiation score” value (ReNCell VM [2]; library: Spectrum) was inactive: 0.
With `CC(=O)C1=C(O)[C@@H]2[C@H]3c4c[nH]c5cccc(c45)C[C@H]3C(C)(C)N2C1=O` [Cyclopiazonic Acid] the neuronal differentiation score (ReNCell VM [1]; library: Tocriscreen) was inactive: 0 and the “dopaminergic neuron differentiation score” value (ReNCell VM [2]; library: Tocriscreen) was inactive: 0.
For `NCCCNCCSP(=O)(O)O`, the neuronal differentiation score (ReNCell VM [1]; library: Spectrum) was inactive: 0 and the “dopaminergic neuron differentiation score” value (ReNCell VM [2]; library: Spectrum) was inactive: 0.
For `CC[C@H]1CN2CC[C@H]1C[C@@H]2[C@@H](O)c1ccnc2ccc(OC)cc12` [Hydroquinidine HCl], the neuronal differentiation score (ReNCell VM [1]; library: Phytochemical) was inactive: -3 and the “dopaminergic neuron differentiation score” value (ReNCell VM [2]; library: Phytochemical) was inactive: 0.
`CCC1(CC)C(=O)C=CNC1=O` [Pyrithyldione] was tested, and the neuronal differentiation score (ReNCell VM [1]; library: Prestwick) was inactive: 0 and the “dopaminergic neuron differentiation score” value (ReNCell VM [2]; library: Prestwick) was inactive: 0.
With `C/C=C1\C[C@@H](C)[C@](O)(CO)C(=O)OCC2=CCN3CC[C@@H](OC1=O)[C@@H]23` [Retrorsine] the neuronal differentiation score (ReNCell VM [1]; library: Phytochemical) was inactive: 0 and the “dopaminergic neuron differentiation score” value (ReNCell VM [2]; library: Phytochemical) was inactive: 0.
